Measurements published in patent US10155020B2, “Compositions and methods for treating hepatitis B” (The Regents of the University of Colorado, a body corporate, priority 2012, dated 2018).
Results are given in words; binding and its absence hold for the method and conditions named. Some binding calls cover weakened binding; strength is not graded here.

Target: T1, CED-9 (C. elegans, UniProt P41958 1-251)
T1 sequence (looked up): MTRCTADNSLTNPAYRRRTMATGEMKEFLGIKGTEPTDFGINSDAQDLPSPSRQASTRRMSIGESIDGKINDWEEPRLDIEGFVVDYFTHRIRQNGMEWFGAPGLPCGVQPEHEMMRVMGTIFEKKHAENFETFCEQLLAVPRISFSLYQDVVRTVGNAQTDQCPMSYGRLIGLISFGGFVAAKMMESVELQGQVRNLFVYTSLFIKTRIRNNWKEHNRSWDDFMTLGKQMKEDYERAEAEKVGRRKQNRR
Assay: gel filtration (Superdex 200)

B1: CED-4 (protein, C. elegans, UniProt P30429 1-549, looked up)
chain: MLCEIECRALSTAHTRLIHDFEPRDALTYLEGKNIFTEDHSELISKMSTRLERIANFLRIYRRQASELGPLIDFFNYNNQSHLADFLEDYIDFAINEPDLLRPVVIAPQFSRQMLDRKLLLGNVPKQMTCYIREYHVDRVIKKLDEMCDLDSFFLFLHGRAGSGKSVIASQALSKSDQLIGINYDSIVWLKDSGTAPKSTFDLFTDILLMLKSEDDLLNFPSVEHVTSVVLKRMICNALIDRPNTLFVFDDVVQEETIRWAQELRLRCLVTTRDVEISNAASQTCEFIEVTSLEIDECYDFLEAYGMPMPVGEKEEDVLNKTIELSSGNPATLMMFFKSCEPKTFEKMAQLNNKLESRGLVGVECITPYSYKSLAMALQRCVEVLSDEDRSALAFAVVMPPGVDIPVKLWSCVIPVDICSNEEEQLDDEVADRLKRLSKRGALLSGKRMPVLTFKIDHIIHMFLKHVVDAQTIANGISILEQRLLEIGNNNVSVPERHIPSHFQKFRRSSASEMYPKTTEETVIRPEDFPKFMQLHQKFYDSLKNFACC
In the case of B1, the binding is reported as “binds”.
